According to patent publication US5500807A, “Selection method for pharmacologically active compounds” (The Regents of the University of California, priority 1992, dated 1996):

Test system: rGH mRNA in GC cells
Assay: cells
Conditions: Rattus norvegicus, 48 h, read-out: EC50 for blockade of rGH mRNA

`CCCCc1oc2ccccc2c1C(=O)c1cc(I)c(OCCN(CC)CC)c(I)c1` [amiodarone, 2-butyl-3-[3,5-diiodo-4-(β-diethylaminoethoxy)-benzoyl]benzofuran] was tested, and the EC50 was 3.1 µM.
